Measurements reported in PubChem BioAssay AID1259405 (NCATS, 2018)
The deposit covers about 50,000 reagents; shown is an unselected part. About 4,000 of all reagents (8%) count as active. 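Mouse siRNA library applied to hamster cells; one well for each siRNA.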 A number with no mark means an inactive call. The numbers tell different reagents against one gene apart.

- Aim: 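Knock-downs that lift recombinant protein yield in hamster ovary cells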 (primary screen)
- System: Chinese hamster CHO-K1 ovary cells with stable secreted eGFP expression
- Reagent: single siRNA against mouse genes, 0.8 pmol siRNA per well (2 µl of 400 nM stock)
- Duration: 3 days
- Detection: 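Percent of the per-plate non-targeting control median for intracellular GFP per well by laser scanning cytometry and for cell viability by ATP luminescence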
- Reading the numbers: GFP, % of control: higher = more GFP per well, higher productivity; viability (ATP), % of control: higher = more viable cells (more ATP)
- Hit rule: 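Called active when intracellular GFP, relative to negative control, is at or above 120%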

gene,reagent no.,"GFP, % of control","viability (ATP), % of control"
Neo1,1,55.4,81
Neo1,2,102,78.8
Map4k4,1,115,91
Map4k4,2,71.2,78
Map4k4,3,52.2,65.8
Wwc2,1,83.5,78.6
Wwc2,2,153 (active),105
Wwc2,3,88.9,70.3
Cage1,1,111,59.2
Cage1,2,106,65.6
Cage1,3,93.7,103
Vmn1r217,1,56.7,58.3
Vmn1r217,2,80.7,60.3
Vmn1r217,3,89.4,80.4
Josd2,1,63.7,77.3
Josd2,2,113,83.6
Josd2,3,80.2,31.7
Myo3a,1,108,111
Myo3a,2,96.5,77.9
Myo3a,3,75.7,78
Kcmf1,1,54.7,54.3
Kcmf1,2,83.3,66.3
Kcmf1,3,105,89.3
Rbm12b1,1,80,62.8
Rbm12b1,2,95,81.5
Rbm12b1,3,57.6,46.1
Gskip,1,87.9,85.9
Gskip,2,59.4,84.6
Gskip,3,96.6,105
4930544M13Rik,1,45.1,54
4930544M13Rik,2,85.1,61.6
4930544M13Rik,3,96.5,97.5
Septin4,1,95.4,78.6
Septin4,2,48.2,51.6
Gtsf1l,1,95.8,68.5
Gtsf1l,2,88.9,88
Gtsf1l,3,81.6,65.5
B3galnt2,1,74.8,76.7
B3galnt2,2,89,112
B3galnt2,3,94.6,88.5
Loxl1,1,106,62
Loxl1,2,48.4,56.2
Loxl1,3,102,57.2
Uvrag,1,62.6,58.5
Uvrag,2,68,56.8
Uvrag,3,85.6,109
Phactr1,1,79.1,61.2
Phactr1,2,61.5,42
Phactr1,3,98.6,113
Zc3h12d,1,53.9,69.3
Zc3h12d,2,88.5,45.2
Zc3h12d,3,91.9,93.2
Or12d13,1,70.1,61.1
Or12d13,2,85.2,95.9
Or12d13,3,75.6,65.2
Zfp472,1,69.6,57.3
Zfp472,2,70.9,73.8
Zfp472,3,96.6,87.1

7 successive records from above:
gene,reagent no.,"GFP, % of control","viability (ATP), % of control"
Zc3h12d,1,53.9,69.3
Zc3h12d,2,88.5,45.2
Zc3h12d,3,91.9,93.2
Or12d13,1,70.1,61.1
Or12d13,2,85.2,95.9
Or12d13,3,75.6,65.2
Zfp472,1,69.6,57.3
